Assay [1] has as its target Ubiquitin-specific peptidase 16 (USP16), N-terminally NanoLuc-tagged (human) (UniProt Q9Y5T5). The assay can be described thus: FRET or BRET.
In assay [2] the target is HDAC6 (histone deacetylase 6), N-terminally NanoLuc-tagged (UniProt Q9UBN7). Kind of assay: FRET or BRET. In general terms: BRET reads energy transfer from a luciferase to a nearby fluorophore.

By UniProt entry, the sequences of proteins in these tests, tags left out. Residues count along the entry.
UniProt Q9Y5T5: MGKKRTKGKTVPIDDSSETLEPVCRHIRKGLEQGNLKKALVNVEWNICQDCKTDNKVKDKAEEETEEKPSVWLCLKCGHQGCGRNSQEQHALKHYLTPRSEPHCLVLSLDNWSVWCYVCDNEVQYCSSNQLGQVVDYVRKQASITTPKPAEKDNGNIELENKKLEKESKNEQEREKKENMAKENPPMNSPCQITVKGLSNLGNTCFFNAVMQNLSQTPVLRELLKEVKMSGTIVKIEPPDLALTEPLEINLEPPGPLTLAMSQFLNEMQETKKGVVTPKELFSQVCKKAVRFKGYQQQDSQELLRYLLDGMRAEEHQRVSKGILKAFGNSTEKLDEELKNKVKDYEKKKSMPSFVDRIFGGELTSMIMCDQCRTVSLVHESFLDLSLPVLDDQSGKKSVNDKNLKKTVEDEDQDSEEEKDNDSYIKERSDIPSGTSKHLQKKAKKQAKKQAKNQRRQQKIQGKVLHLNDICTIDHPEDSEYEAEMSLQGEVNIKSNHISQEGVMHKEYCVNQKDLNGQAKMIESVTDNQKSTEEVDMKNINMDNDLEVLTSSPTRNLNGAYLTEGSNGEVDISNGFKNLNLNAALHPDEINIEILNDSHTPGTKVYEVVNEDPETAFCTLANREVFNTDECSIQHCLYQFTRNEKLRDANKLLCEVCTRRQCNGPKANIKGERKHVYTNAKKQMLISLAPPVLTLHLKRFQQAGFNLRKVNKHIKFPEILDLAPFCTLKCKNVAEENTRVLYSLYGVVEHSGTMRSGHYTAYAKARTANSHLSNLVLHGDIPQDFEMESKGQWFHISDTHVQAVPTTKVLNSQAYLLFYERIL
UniProt Q9UBN7: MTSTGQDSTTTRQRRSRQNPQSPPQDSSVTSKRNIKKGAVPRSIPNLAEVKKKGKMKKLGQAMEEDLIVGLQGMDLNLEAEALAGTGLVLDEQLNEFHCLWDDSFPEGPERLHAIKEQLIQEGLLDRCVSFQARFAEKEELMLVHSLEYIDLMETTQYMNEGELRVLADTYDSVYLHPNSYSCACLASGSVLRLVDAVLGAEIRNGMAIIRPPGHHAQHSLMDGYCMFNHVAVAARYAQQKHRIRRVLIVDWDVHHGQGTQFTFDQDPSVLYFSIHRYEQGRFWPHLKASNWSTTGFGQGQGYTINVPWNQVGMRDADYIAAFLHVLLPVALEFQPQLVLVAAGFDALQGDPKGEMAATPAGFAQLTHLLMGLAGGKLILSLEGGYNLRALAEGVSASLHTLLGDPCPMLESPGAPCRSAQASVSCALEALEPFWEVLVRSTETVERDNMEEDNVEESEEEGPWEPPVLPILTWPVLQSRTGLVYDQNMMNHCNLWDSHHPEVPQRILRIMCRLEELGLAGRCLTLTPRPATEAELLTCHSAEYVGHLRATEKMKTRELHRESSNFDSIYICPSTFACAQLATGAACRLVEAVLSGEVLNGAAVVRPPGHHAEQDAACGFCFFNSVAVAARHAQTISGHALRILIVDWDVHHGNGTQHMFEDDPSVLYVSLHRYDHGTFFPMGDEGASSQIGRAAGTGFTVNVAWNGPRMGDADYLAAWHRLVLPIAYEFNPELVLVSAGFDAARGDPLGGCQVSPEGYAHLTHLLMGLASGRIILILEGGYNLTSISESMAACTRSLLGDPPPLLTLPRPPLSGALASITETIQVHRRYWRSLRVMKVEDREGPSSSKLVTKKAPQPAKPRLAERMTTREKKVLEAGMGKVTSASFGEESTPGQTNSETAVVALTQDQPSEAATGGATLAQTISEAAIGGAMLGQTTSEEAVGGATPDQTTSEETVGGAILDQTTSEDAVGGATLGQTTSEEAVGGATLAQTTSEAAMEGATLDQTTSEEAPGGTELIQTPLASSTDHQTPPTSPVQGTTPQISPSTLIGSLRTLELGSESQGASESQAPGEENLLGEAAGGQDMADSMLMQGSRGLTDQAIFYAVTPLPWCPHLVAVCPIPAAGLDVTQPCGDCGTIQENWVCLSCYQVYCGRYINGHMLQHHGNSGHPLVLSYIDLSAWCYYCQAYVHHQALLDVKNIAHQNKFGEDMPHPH
UniProt P05161, residues 1-157: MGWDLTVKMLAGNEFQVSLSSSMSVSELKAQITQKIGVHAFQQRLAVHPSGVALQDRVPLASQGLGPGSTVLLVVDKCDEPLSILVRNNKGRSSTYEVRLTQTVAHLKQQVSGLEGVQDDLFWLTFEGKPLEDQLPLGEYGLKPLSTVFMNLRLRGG

Results are given in words; binding and its absence hold for the method and conditions named. In cells and extracts the contact can be indirect. Some results given as binding are weak or reduced against the parent protein; the word gives no strength.

For 1 substance, binding results are on record in publication doi:10.1101/2025.10.23.684218.

Turning to “ISG15, N-terminally HaloTag-tagged (from UniProt P05161 1-157)”, the binding entry in assay [1] and in assay [2] was “binds” throughout.
